In patent publication US20050245453A1 one finds binding data, which are given here for 1 substance.

The chains behind the UniProt entries cited, without tags or fusion partners. Residues count along the entry.
UniProt P45481, residues 2-2441: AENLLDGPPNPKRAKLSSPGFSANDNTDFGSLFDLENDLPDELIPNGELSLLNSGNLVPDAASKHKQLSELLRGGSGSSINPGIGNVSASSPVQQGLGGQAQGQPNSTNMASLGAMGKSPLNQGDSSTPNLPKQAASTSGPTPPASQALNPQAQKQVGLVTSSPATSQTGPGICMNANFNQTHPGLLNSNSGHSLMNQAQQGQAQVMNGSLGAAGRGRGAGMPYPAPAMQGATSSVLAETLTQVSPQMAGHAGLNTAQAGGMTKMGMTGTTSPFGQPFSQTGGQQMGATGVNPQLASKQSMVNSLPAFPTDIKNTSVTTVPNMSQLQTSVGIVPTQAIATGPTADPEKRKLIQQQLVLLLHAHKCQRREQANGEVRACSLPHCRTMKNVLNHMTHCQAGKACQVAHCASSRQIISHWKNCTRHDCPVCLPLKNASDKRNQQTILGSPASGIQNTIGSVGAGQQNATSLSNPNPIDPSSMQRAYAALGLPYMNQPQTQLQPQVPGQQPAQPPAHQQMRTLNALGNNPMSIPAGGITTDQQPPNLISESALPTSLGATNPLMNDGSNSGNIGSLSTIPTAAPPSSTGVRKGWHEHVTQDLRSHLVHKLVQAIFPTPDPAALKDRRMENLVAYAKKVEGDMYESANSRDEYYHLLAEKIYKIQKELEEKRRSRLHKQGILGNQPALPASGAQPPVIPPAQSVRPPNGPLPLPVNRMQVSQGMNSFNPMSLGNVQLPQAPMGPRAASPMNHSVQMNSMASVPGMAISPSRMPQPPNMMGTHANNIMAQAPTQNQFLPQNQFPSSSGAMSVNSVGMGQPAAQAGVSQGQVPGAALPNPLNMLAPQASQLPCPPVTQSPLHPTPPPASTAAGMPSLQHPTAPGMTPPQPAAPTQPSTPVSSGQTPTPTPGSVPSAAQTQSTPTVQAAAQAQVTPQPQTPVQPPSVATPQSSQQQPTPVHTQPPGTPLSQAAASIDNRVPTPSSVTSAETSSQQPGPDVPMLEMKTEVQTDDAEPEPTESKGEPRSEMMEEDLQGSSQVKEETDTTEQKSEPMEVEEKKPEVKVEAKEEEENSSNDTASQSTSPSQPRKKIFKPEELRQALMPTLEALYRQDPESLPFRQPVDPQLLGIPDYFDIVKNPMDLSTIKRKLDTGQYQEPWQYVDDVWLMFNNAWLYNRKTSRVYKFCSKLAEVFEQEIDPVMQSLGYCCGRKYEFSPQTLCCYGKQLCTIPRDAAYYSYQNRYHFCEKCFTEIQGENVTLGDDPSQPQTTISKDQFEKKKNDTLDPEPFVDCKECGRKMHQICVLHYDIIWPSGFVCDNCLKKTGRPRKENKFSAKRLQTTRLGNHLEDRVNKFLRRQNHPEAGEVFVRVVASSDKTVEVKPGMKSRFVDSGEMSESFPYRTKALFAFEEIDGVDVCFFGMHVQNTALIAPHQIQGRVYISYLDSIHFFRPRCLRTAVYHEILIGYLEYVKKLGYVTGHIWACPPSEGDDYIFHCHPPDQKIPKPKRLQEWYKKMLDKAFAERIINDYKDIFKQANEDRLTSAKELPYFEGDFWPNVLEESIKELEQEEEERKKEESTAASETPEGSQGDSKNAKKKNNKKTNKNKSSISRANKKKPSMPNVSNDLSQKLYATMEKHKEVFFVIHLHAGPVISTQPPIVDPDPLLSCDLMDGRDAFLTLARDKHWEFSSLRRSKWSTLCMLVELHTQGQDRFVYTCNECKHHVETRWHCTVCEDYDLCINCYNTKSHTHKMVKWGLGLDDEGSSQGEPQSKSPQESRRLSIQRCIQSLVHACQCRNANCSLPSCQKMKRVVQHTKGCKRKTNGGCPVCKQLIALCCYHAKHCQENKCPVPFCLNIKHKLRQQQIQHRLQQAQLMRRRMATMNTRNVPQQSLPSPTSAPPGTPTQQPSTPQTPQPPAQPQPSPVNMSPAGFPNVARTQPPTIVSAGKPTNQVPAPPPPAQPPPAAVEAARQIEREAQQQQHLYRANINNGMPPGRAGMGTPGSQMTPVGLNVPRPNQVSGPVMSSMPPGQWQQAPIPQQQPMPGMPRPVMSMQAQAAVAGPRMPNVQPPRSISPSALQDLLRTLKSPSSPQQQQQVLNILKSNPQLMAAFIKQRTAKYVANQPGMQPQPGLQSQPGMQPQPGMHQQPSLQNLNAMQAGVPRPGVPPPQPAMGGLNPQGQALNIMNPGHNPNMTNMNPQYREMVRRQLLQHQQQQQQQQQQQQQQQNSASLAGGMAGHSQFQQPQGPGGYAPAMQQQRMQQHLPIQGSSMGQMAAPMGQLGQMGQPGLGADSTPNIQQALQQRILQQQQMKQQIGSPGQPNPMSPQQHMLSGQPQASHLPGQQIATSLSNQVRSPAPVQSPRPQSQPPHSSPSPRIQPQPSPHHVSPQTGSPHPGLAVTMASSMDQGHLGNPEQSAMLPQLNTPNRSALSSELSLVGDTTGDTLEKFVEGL
UniProt P10288, residues 753-912: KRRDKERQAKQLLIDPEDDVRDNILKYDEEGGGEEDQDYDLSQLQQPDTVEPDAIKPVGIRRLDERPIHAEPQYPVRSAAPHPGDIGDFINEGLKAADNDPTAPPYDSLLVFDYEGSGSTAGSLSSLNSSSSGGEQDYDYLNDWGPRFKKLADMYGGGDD

This test deals with CBP (CREB binding protein) (UniProt P45481). Put plainly: reciprocal co-immunoprecipitation from pN-Cad/CTF2-transfected L cell extract, Western blot. A general note: In western blotting, separated proteins are transferred to a membrane and probed.

These are yes or no findings as the source states them, for the method shown. In cells and extracts the contact can be indirect. Some results given as binding are weak or reduced against the parent protein; the word gives no strength.

“N-Cad/CTF2 (chicken cytoplasmic domain of N-cadherin expressed from pN-Cad/CTF2) (from UniProt P10288 753-912)”: the binding entry was “binds”.
